Measurements taken from article PMC7862700.
The entries are a selection whose mix differs from that of the whole data set. At the low end of the ranking, values are background and their order means little.

Each sequence was assayed against T1, ELF3 (UniProt P78545) (assay: DAPPL (digital affinity profiling via proximity ligation, sequencing)). Details: 10 mM Tris-HCl pH 7.5, 50 mM NaCl, 1 mM DTT, 4% glycerol, room temperature, 30 min; GST-TFs on glutathione beads, 16-mer random dsDNA library, 0.1% …; high values mean tight binding; double strand, one strand shown; scale: fold enrichment (6-mer frequency, TF over GST control).
T1 sequence: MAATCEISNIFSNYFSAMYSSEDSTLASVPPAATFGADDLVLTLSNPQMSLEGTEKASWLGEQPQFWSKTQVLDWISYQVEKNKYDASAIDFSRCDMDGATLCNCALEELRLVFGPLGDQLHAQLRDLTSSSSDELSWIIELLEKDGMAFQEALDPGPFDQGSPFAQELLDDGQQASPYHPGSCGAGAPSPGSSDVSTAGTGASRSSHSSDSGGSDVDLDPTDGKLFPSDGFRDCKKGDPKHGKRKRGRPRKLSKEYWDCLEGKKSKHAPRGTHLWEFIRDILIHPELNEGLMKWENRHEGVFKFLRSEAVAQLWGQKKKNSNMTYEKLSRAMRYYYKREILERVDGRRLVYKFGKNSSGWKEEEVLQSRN

Row | Sequence | binding signal
1 | CTAAGA | 1.24
2 | CTTGTT | 0.972
3 | ATGTCT | 1.08
4 | TTTGGC | 0.972
5 | GCCTTT | 1.38
6 | GAATTC | 1.13
7 | CTTAGG | 1.49
8 | GATTAC | 1.04
9 | TGACTC | 1.36
10 | GCTATT | 1.45
11 | TACTGC | 1.34
12 | TAATGA | 1.12
13 | TTCTTC | 1.74
14 | TGACTT | 1.55
15 | GATGAC | 1.48
16 | AACGAC | 1.02
17 | TGCTGC | 1.11
18 | AACTTA | 1.12
19 | CCGCGT | 1.16

Row | Sequence | binding signal
20 | TACCAC | 1.25
21 | AATGAT | 1.17
22 | ATCTAC | 1.33
23 | TATTCA | 1.31
24 | CGCTCC | 1.3
25 | GTATTT | 1.39
26 | ATGCTT | 1.35
27 | AACAGG | 1.15
28 | CGAAAA | 1.01
29 | TTGATG | 1.81
30 | ATTGCT | 1.28
31 | CTAATC | 1.56
32 | TACCGA | 1.3
33 | GAATAA | 1.12
34 | TTTACT | 1.65
35 | TTACAA | 1.22
36 | GCTTAT | 1.29
37 | TTCCTG | 2.23
38 | TGAAAC | 1.42

Reprinted at random: two entries already listed.
Row | Sequence | binding signal
22 | ATCTAC | 1.33
25 | GTATTT | 1.39
